No constants are given. Whether binding was seen depends on the method and setting. Binding can be weak; no strength is given.

One assay concerns the target T1, PCGF1 (mouse) (UniProt Q8R023).
T1 sequence: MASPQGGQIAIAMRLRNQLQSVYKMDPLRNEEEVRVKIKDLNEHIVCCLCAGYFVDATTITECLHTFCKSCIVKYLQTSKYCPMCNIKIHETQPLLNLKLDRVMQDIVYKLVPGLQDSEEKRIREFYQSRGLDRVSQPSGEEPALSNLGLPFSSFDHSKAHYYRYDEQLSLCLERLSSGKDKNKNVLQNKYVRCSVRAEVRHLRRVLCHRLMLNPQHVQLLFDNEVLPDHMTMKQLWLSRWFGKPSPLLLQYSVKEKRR
Nature of the assay: cross-linking; 30 ug of the affinity-purified five-component PCGF1-PRC1 holocomplex cross-linked with BS3 for 30 min at 37 C; trypsin digest, LC-MS/MS, XQuest, confidence score cut-off > 15; both purified.

Another assay concerns the target T2, RYBP (mouse) (UniProt Q8CCI5).
T2 sequence: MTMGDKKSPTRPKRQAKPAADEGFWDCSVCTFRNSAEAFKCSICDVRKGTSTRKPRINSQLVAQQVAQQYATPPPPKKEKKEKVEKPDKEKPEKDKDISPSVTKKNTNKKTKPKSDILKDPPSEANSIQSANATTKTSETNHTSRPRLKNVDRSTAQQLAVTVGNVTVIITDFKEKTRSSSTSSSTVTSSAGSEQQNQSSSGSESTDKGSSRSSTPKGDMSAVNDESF
Described as above.

For KDM2B (short isoform) (mouse), the binding entry with PCGF1 (mouse) and with RYBP (mouse) was “binds” in each case.

Values taken from paper PMC5065315.
